“And” between values parts separate entries of the source, which are not always exact repeats. Equal entries are not always repeated. This continues a long series; more values of the same kind are listed elsewhere.
System: panel of cell lines (A549, HCC-364, HCC-515, HCC4006, KYSE-30, LU99, LXFA_629L, LXFA_923L, LXFL_529L, LXFL_1121L, MP38, NCI-H23, NCI-H1355, OV-90, SK-MEL-5 …)
Assay: Cell viability assay (CellTiter Glo) in a panel of cell lines;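 as to % Viability: percent of DMSO-treated control cells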
Format: cell-based, human
Method: 500–2000 cells were seeded in white, clear bottom 96-well plates (Corning or Perkin Elmer) in 180–200 µl medium per well. The next day, compounds were added using a digital dispenser and a T0 sample was measured for reference. Cells were incubated for 144–192 h, and viability (luminescence) was measured using CellTiter Glo or CellTiter Glo 2.0 (Promega) according to manufacturer’s instructions after equilibrating cells and reagents at room temperature and 10–20 min incubation time while shaking.

## Cc1ncsc1-c1ccc(C(CCC(C)CCN2CCC(c3ccc4c(c3)n(C3CCCC3)c3nc(=O)c5c(Br)cccc5n43)CC2)NC(=O)C2CC(O)CN2C(=O)C(NC(=O)C2(F)CC2)C(C)(C)C)cc1 (stereo not drawn) [ACBI2]
LXFA_923L, log10 conc -10 mol/l
  % Viability: 94.6277% and 107.522%
LXFA_923L, log10 conc -10.5003 mol/l
  % Viability: 100.788% and 114.758%
LXFL_529L
  Bottom (% Viability, four-parameter fit): 1.803%
  Top (% Viability, four-parameter fit): 115.4%
LXFL_529L, log10 conc -5 mol/l
  % Viability: -0.2275% and -0.2915%
LXFL_529L, log10 conc -5.50031 mol/l
  % Viability: 1.427% and 1.018%
LXFL_529L, log10 conc -6 mol/l
  % Viability: 6.337%
LXFL_529L, log10 conc -6.50031 mol/l
  % Viability: 9.0758%
LXFL_529L, log10 conc -7 mol/l
  % Viability: 11.8024%
LXFL_529L, log10 conc -9 mol/l
  % Viability: 37.1344% and 45.876%
LXFL_529L, log10 conc -9.50031 mol/l
  % Viability: 62.3969% and 71.188%
LXFL_529L, log10 conc -10 mol/l
  % Viability: 75.0423% and 80.5456%
LXFL_529L, log10 conc -10.5003 mol/l
  % Viability: 79.3021% and 94.5269%
LXFL_1121L
  Top (% Viability, four-parameter fit): 103.2%
LXFL_1121L, log10 conc -5 mol/l
  % Viability: 0.9252% and 0.3599%
LXFL_1121L, log10 conc -5.50031 mol/l
  % Viability: 78.711% and 94.6959%
LXFL_1121L, log10 conc -6 mol/l
  % Viability: 103.113%
LXFL_1121L, log10 conc -6.50031 mol/l
  % Viability: 98.8113%
LXFL_1121L, log10 conc -7 mol/l
  % Viability: 98.81%
LXFL_1121L, log10 conc -9 mol/l
  % Viability: 107.363% and 113.991%
LXFL_1121L, log10 conc -9.50031 mol/l
  % Viability: 107.228% and 111.35%
LXFL_1121L, log10 conc -10 mol/l
  % Viability: 102.749% and 106.981%
LXFL_1121L, log10 conc -10.5003 mol/l
  % Viability: 101.922% and 106.367%
MP38
  Bottom (% Viability, four-parameter fit): 0.5751%
  Top (% Viability, four-parameter fit): 100.1%
MP38, log10 conc -5 mol/l
  % Viability: -0.2804% and -0.0183%
MP38, log10 conc -5.50031 mol/l
  % Viability: 2.294% and 2.158%
MP38, log10 conc -6 mol/l
  % Viability: 1.8016%
MP38, log10 conc -6.50031 mol/l
  % Viability: 0.4587%
MP38, log10 conc -7 mol/l
  % Viability: 1.199%
MP38, log10 conc -9 mol/l
  % Viability: 96.5713% and 94.9035%
MP38, log10 conc -9.50031 mol/l
  % Viability: 104.952% and 103.401%
MP38, log10 conc -10 mol/l
  % Viability: 95.4661% and 92.9492%
MP38, log10 conc -10.5003 mol/l
  % Viability: 101.896% and 104.542%
NCI-H23
  Top (% Viability, four-parameter fit): 98.08%
NCI-H23, log10 conc -5.30103 mol/l
  % Viability: 0.1672% and 7.077%
NCI-H23, log10 conc -5.90309 mol/l
  % Viability: 84.1185%
NCI-H23, log10 conc -6.50446 mol/l
  % Viability: 90.9419%
NCI-H23, log10 conc -8.91364 mol/l
  % Viability: 95.7855% and 110.036%
NCI-H23, log10 conc -9.5157 mol/l
  % Viability: 99.9548% and 109.433%
NCI-H23, log10 conc -10.1175 mol/l
  % Viability: 94.0472% and 104.784%
NCI-H1355
  Bottom (% Viability, four-parameter fit): 37.08%
  Top (% Viability, four-parameter fit): 98.74%
NCI-H1355, log10 conc -8.91364 mol/l
  % Viability: 94.5379% and 99.7786%
NCI-H1355, log10 conc -9.5157 mol/l
  % Viability: 97.2854% and 103.36%
NCI-H1355, log10 conc -10.1175 mol/l
  % Viability: 93.3347% and 101.753%
OV-90
  Bottom (% Viability, four-parameter fit): 32.83%
  Top (% Viability, four-parameter fit): 104.1%
OV-90, log10 conc -5.30103 mol/l
  % Viability: 26.9189% and 37.7653%
OV-90, log10 conc -5.90309 mol/l
  % Viability: 41.2909%
OV-90, log10 conc -6.50446 mol/l
  % Viability: 44.8049%
OV-90, log10 conc -8.91364 mol/l
  % Viability: 96.0338% and 104.921%
OV-90, log10 conc -9.5157 mol/l
  % Viability: 94.2442% and 107.983%
OV-90, log10 conc -10.1175 mol/l
  % Viability: 101.454% and 110.843%
SK-MEL-5
  Bottom (% Viability, four-parameter fit): 0.627%
  Top (% Viability, four-parameter fit): 83.26%
SK-MEL-5, log10 conc -5.30103 mol/l
  % Viability: 0.2128% and -0.1687%
SK-MEL-5, log10 conc -5.90309 mol/l
  % Viability: 1.025%
SK-MEL-5, log10 conc -6.50446 mol/l
  % Viability: 1.277%
SK-MEL-5, log10 conc -8.91364 mol/l
  % Viability: 43.9093% and 76.9393%
SK-MEL-5, log10 conc -9.5157 mol/l
  % Viability: 57.8162% and 85.5386%
SK-MEL-5, log10 conc -10.1175 mol/l
  % Viability: 72.3673% and 94.158%
TOV-112D
  Top (% Viability, four-parameter fit): 105.4%
TOV-112D, log10 conc -5.30103 mol/l
  % Viability: 47.8559% and 46.2285%
TOV-112D, log10 conc -5.90309 mol/l
  % Viability: 99.1574%
TOV-112D, log10 conc -6.50446 mol/l
  % Viability: 102.024%
TOV-112D, log10 conc -8.91364 mol/l
  % Viability: 102.723% and 100.251%
TOV-112D, log10 conc -9.5157 mol/l
  % Viability: 112.405% and 107.421%
TOV-112D, log10 conc -10.1175 mol/l
  % Viability: 108.034% and 102.966%
